The text below walks through data of PubChem BioAssay AID901 (National Center for Advancing Translational Sciences (NCATS), 2007).

This is one part of the list. Shown are side measurements of this screen, not its main read-out; they come without a call. Most of these compounds were active or inconclusive in the main read-out, so they are no random draw. Potencies come from curve fits of mixed quality, noted in brackets.

The nature of the experiment: qHTS Assay for Identifying the Cell-Membrane Permeable IMPase Inhibitors. The conditions noted are these: CHO-M1 cells, IP1 accumulation, HTRF TR-FRET ratio; measured here: donor channel 620 nm AC50.
One may read the AC50 as the midpoint of the concentration-response curve, whichever way the signal moves. As for `O=C(NCCc1ccccc1)c1cc2sccc2n1Cc1ccccc1`, the concentration at half-maximal activity (AC50) is 31.6 µM [rising, single point].

As to `CC(=O)c1c(C)oc2ccc(N(C(=O)Oc3ccccc3)S(=O)(=O)c3ccccc3)cc12`, the AC50 is 5.62 µM [falling, single point].

`CCn1cnc2cc(NCc3cccc(OC)c3O)ccc21`: the AC50 was 2.82 µM [falling, single point].

For the compound `COc1ccc(C2C=C(c3cccs3)Nc3nc(CCCO)nn32)cc1` (stereo not given), the AC50 was 15.8 µM [rising, partial curve].

With `Cc1ccc(C(=O)C2=C(O)C(=O)N(CCCn3ccnc3)C2c2ccc(OC(C)C)cc2)o1` (stereo not given), the concentration at half-maximal activity (AC50) was 15.8 µM [rising, single point].

Consider `Cc1ccc2c(c1)N(CC(=O)NCCc1c[nH]c3ccccc13)C(=O)CO2`, for which the half-maximal activity concentration (AC50) is 3.16 µM [rising, single point].

Turning to `Cc1cc(N2CCOCC2)nc2ccc(NC(=O)CCC(=O)N3CCCCC3)cc12`, the half-maximal activity concentration (AC50) is 0.01 µM [rising, full curve, poor fit].

In the case of `CCCCS(=O)(=O)CC(O)CSc1nc(-c2ccc(C)cc2)cc(-c2ccccc2)c1C#N` (stereo not given), the AC50 is 35.5 µM [rising, single point].

As to `CCOC(=O)c1ccc(Nc2ccc(-c3ccc(OC)c(OC)c3)nn2)cc1`, the AC50 was 3.16 µM [rising, single point].

Consider `COCCCNC(=O)CNC(=S)N(Cc1ccc(F)cc1)C1CCCCC1`, for which the AC50 was 0.0126 µM [rising, full curve, poor fit].

For `CCOC(=O)C(C)Sc1ncc(OC)c(=O)[nH]1` (stereo not given), the AC50 is 2.82 µM [rising, full curve, poor fit].

For the compound `O=C(Nc1ccccc1-c1nc2ccccc2s1)c1cccnc1Cl`, the AC50 is 0.251 µM [rising, full curve].

As to `COc1ccc(-c2nc(CCNC(=O)c3cccs3)cs2)cc1`, the AC50 was 0.1 µM [falling, full curve, poor fit].

Turning to `COC(=O)c1cc(OC)c(OC)cc1NC(=O)Nc1ccc(OC)cc1OC`, the AC50 is 31.6 µM [falling, single point].

As for `Cc1cc(Br)c2c(c1)=C(c1sc(N3CCCCCC3)nc1O)C(=O)N=2`, the AC50 is 0.0158 µM [falling, partial curve, poor fit].

With `O=C(Nc1cccnc1)c1cc(-c2ccc3c(c2)OCO3)on1`, the concentration at half-maximal activity (AC50) is 0.00398 µM [rising, full curve, poor fit].

Regarding `COc1ccc(C(=O)Nc2ccccn2)cc1`, the half-maximal activity concentration (AC50) is 1 µM [falling, full curve].

As to `Cc1nc(SC2CCOC2=O)c2c(C)c(C)sc2n1` (stereo not given), the AC50 is 10 µM [rising, partial curve].

Turning to `CCC1(CC)Cc2ccccc2C(N)=C1C#N`, the AC50 was 0.158 µM [falling, partial curve, poor fit].

As to `Cc1cnn(-c2ccc3nnc(-c4ccc(Br)cc4)n3n2)c1`, the AC50 is 0.00501 µM [falling, full curve, poor fit].

On to `CC(=O)c1cc2c(cc1NC(=O)CN1CCN(c3cccc(C(F)(F)F)c3)CC1)OCO2`, for which the AC50 was 1.78 µM [rising, full curve, poor fit].

As to `CN(Cc1c(O)ccc2c1oc(=O)c1ccccc12)C1CCCCC1`, the concentration at half-maximal activity (AC50) is 12.6 µM [rising, single point].

Turning to `CC(=O)CSc1ncnc2c1oc1ccccc12`, the AC50 is 25.1 µM [rising, single point].

Regarding `N#Cc1sc2nc(-c3cccs3)cc(-c3ccc(Cl)cc3)c2c1N`, the half-maximal activity concentration (AC50) was 12.6 µM [rising, single point].

Turning to `Cc1ccc(CN2C(=O)C3CCCN3c3ccc(S(=O)(=O)N4CCOCC4)cc32)cc1` (stereo not given), the AC50 was 0.0126 µM [falling, full curve, poor fit].

As to `CC(=O)NCC(=O)OCC(=O)c1ccc(C)c(C)c1`, the AC50 was 6.31 µM [falling, single point].

Turning to `COc1ccc2cc(C3(C)NC(=O)N(CC(=O)Nc4c(C)n(C)n(-c5ccccc5)c4=O)C3=O)ccc2c1` (stereo not given), the AC50 is 2.82 µM [falling, single point].

Take `CCOC(=O)C1CCN(C(=O)CNS(=O)(=O)c2ccc(Br)s2)CC1`: the AC50 is 0.0158 µM [rising, partial curve, poor fit].

For the compound `c1ccc(-c2cnc(SCCN3CCOCC3)n2CC2CCCO2)cc1` (stereo not given), the AC50 was 0.00316 µM [falling, full curve, poor fit].

As to `COc1ccccc1-n1c(=O)oc2ccc(Cl)cc2c1=O`, the half-maximal activity concentration (AC50) was 1.26 µM [rising, single point].

Regarding `N#Cc1c(N)nc(SCC(=O)NCCc2ccccc2)c(C#N)c1-c1cccs1`, the AC50 is 20 µM [rising, single point].

Take `CC(C)c1cc(C(N)=O)c(NC(=O)c2cccc(COc3ccc(Cl)cc3)c2)s1`: the AC50 was 0.316 µM [falling, full curve, poor fit].

For the compound `Cc1onc(-c2ccccc2Cl)c1C(=O)Nc1nnc(-c2ccc(Cl)cc2Cl)s1`, the AC50 is 14.1 µM [rising, single point].

`Cc1ccccc1Cn1c(C(=O)OC(C)C)cc2c1ccn2C`: the AC50 was 3.98 µM [falling, single point].

As for `Cc1ccc(-n2c(SCC(=O)Nc3c(C)cccc3C)nc(O)c(C)c2=O)cc1`, the AC50 was 5.62 µM [falling, single point].

On to `Cc1ccccc1C(c1c(C)n(C)n(-c2ccccc2)c1=O)c1c(C)n(C)n(-c2ccccc2)c1=O`, for which the half-maximal activity concentration (AC50) is 5.62 µM [rising, single point].

As for `O=C1c2ccccc2C(=O)N1CCSc1nncs1`, the AC50 is 20 µM [falling, single point].

Take `Cc1c(Br)c([N+](=O)[O-])nn1CC(=O)Nc1sc2c(c1C(=O)OC(C)C)CCCC2`: the concentration at half-maximal activity (AC50) was 15.8 µM [falling, single point].

On to `Cc1ccc(NC(=S)NCCO)c(C)c1`, for which the half-maximal activity concentration (AC50) is 0.794 µM [falling, partial curve, poor fit].

Turning to `CCCC(=O)Nc1ccc(NC(=O)c2sc3ccccc3c2Cl)cc1`, the AC50 was 14.1 µM [rising, single point].

Take `CCc1c(C)nc(SCC(=O)N2CCc3ccccc32)[nH]c1=O`: the AC50 is 0.891 µM [falling, full curve, poor fit].

With `COc1cc2c(cc1NC(=O)CN1CCN(S(=O)(=O)c3ccc(C)cc3)CC1)oc1ccccc12`, the concentration at half-maximal activity (AC50) is 3.16 µM [rising, single point].

Take `COc1ccc(NC(=O)c2c(Cl)n(C)c3ccccc23)cc1`: the AC50 is 3.16 µM [falling, partial curve].

On to `O=C(NCCc1ccccc1)C1CC(c2ccccc2O)=NO1` (stereo not given), for which the half-maximal activity concentration (AC50) was 0.01 µM [falling, full curve, poor fit].

With `COc1ccc(C(=O)NC(=S)N(Cc2ccccc2)Cc2ccccc2)cc1`, the half-maximal activity concentration (AC50) is 1.58 µM [rising, partial curve, poor fit].

As for `CS(=O)(=O)N(Cc1ccc(C(=O)Nc2ccccc2Sc2ccccc2)cc1)c1ccccc1`, the AC50 is 3.98 µM [rising, full curve, poor fit].

For the compound `COc1ccc2c(c1OC)C(=O)N(c1ccc(C)c(C)c1)C2=O`, the AC50 was 20 µM [falling, single point].

For `O=C(Nc1ccc(NC(=O)c2cccs2)cc1)c1cccc(Br)c1`, the AC50 is 35.5 µM [rising, single point].

On to `Cn1c(COc2ccc3ccccc3c2)nnc1SCC(=O)OC1CCCCC1`, for which the AC50 was 11.2 µM [falling, single point].

For `Cc1cc(=O)[nH]c(SCC(=O)c2ccc(C)c(C)c2)n1`, the half-maximal activity concentration (AC50) was 3.16 µM [falling, full curve].

With `CC(C)c1ccc2c(c1)C1(NN=C(c3ccccc3)S1)C(=O)N2` (stereo not given), the AC50 is 1 µM [falling, full curve].

In the case of `COc1cc(-c2ccc(N=Nc3ccc4c(S(=O)(=O)O)cc(S(=O)(=O)O)c(N)c4c3O)c(OC)c2)ccc1N=Nc1ccc2c(S(=O)(=O)O)cc(S(=O)(=O)O)c(N)c2c1O`, the concentration at half-maximal activity (AC50) was 15.8 µM [falling, partial curve].

Regarding `COC(=O)c1cc(Br)c(=O)n(-c2nccs2)c1`, the half-maximal activity concentration (AC50) is 10 µM [rising, partial curve].

Regarding `CCCOc1ccc(C2c3c(oc4cc(C)c(C)cc4c3=O)C(=O)N2CCCN(C)C)cc1` (stereo not given), the half-maximal activity concentration (AC50) was 35.5 µM [rising, single point].

On to `Cc1cccc(OCC(=O)Nc2ccc(-c3nc4cc(C)ccc4o3)c(O)c2)c1`, for which the concentration at half-maximal activity (AC50) was 3.16 µM [rising, partial curve].

In the case of `CCc1ccc(CNc2ccc3c(c2)ncn3C)cc1`, the concentration at half-maximal activity (AC50) is 5.01 µM [falling, single point].

With `CCC(C)(C)NC(=O)c1ccc(S(=O)(=O)N(C)c2ccccc2OC)cc1`, the concentration at half-maximal activity (AC50) was 0.126 µM [falling, full curve].

As for `COc1cc2ccccc2cc1C(=O)Nc1cc(-c2nc3ccccc3o2)ccc1C`, the concentration at half-maximal activity (AC50) was 22.4 µM [falling, single point].

In the case of `Clc1cccc(CNc2nnnn2-c2ccccc2)c1`, the AC50 was 6.31 µM [rising, full curve, poor fit].

In the case of `Cc1cc2cc3c(cc2nc1SCC(=O)Nc1ccccc1)CCC3`, the AC50 was 31.6 µM [rising, single point].

`O=C(Cn1c2ccccc2c(=O)c2ccccc21)N/N=C/c1cc([N+](=O)[O-])ccc1N1CCCCCC1`: the AC50 is 0.316 µM [rising, single point].

For `CCN=c1scc(C)n1/N=C/c1ccc(O)c(O)c1O`, the half-maximal activity concentration (AC50) was 20 µM [falling, single point].

Regarding `COc1ccc(-n2c(=O)[nH]cc(C(=O)N3CCc4ccccc43)c2=O)cc1`, the AC50 was 3.16 µM [falling, single point].

With `Cc1cc(SCCC(=O)O)nc2c(C)cccc12`, the half-maximal activity concentration (AC50) was 12.6 µM [rising, partial curve].

For `CC(C)(C)c1ccc(OCc2nc3ccccc3n2CCOc2ccccc2)cc1`, the AC50 was 1.12 µM [falling, full curve, poor fit].
